Source: paper doi:10.1101/2020.04.17.028118
Where a chain is given by its changes, count along the chain named. No constants are given. Whether binding was seen depends on the method and setting. In cells and extracts the contact can be indirect. Here binding means that the protein was enriched with, or labelled near, the bait; the list need not be complete. For some of these results: Tags and fused reporters may be left off the sequences shown.

T1: Dpb11 (tagged bait, overexpressed from the ADH1 promoter) (S. cerevisiae) (UniProt P47027)
T1 sequence: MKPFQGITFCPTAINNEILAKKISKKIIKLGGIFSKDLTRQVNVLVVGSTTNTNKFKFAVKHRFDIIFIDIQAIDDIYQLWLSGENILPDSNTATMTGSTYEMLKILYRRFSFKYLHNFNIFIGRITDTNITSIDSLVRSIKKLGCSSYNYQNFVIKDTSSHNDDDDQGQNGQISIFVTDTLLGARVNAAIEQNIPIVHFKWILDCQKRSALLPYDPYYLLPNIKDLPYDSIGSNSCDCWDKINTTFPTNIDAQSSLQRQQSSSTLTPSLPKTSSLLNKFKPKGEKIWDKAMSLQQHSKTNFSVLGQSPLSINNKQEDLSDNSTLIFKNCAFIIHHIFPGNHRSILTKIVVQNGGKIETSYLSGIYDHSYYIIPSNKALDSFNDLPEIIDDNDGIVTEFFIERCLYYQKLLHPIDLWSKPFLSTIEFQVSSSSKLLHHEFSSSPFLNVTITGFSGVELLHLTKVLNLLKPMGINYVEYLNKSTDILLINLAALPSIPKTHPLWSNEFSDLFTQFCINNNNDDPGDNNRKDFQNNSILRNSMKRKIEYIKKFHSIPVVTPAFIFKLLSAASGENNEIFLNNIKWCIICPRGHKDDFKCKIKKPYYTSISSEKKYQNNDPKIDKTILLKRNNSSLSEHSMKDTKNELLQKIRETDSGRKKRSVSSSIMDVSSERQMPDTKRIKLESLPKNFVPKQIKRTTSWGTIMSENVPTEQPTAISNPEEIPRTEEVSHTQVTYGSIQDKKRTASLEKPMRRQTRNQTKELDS

T2: Dpb11-K55A (bait of the affinity purification with MS) (S. cerevisiae) (UniProt P47027)
T2 sequence: T1 sequence with K55A

B1: Ddc1 (protein, UniProt Q08949 1-612)
chain: MSFKATITESGKQNIWFRAIYVLSTIQDDIKITVTTNELIAWSMNETDTTLCQVRFQKSFFEEYEFKPHEIVFGENGVQVIEDTYGNSHKLYSFRVNGRHLTTISRKPDGDGIKSFTIAVNNTSTCPESLANRLIVVIEMDSLIVKEYCPQFQPIKYDPIIINLKYKRRFLDVFGTAASDRNPQEPLDPKLLDVFTNTERELTSALFNEEVESDIRKRNQLTAADEINYICCNSTLLKNFLDNCNVNVTDEVKLEINVHRLSITAFTKAVYGKNNDLLRNALSMSNTISTLDLEHYCLFTTIEDEKQDKRSHSKRREHMKSIIFKLKDFKNFITIGPSWKTTQDGNDNISLWFCHPGDPILMQMQKPGVKLELVEVTDSNINDDILEGKFIKTAISGSKEEAGLKDNKESCESPLKSKTALKRENLPHSVAGTRNSPLKVSYLTPDNGSTVAKTYRNNTARKLFVEEQSQSTNYEQDKRFRQASSVHMNMNREQSFDIGTTHEVACPRNESNSLKRSIADICNETEDPTQQSTFAKRADTTVTWGKALPAADDEVSCSNIDRKGMLKKEKLKHMQGLLNSQNDTSNHKKQDNKEMEDGLGLTQVEKPRGIFD
B2: Sld2 (protein, UniProt P34252 1-453)
chain: MYSFELDKLKIELKTWEHDFIDKNKREPTRDDIKSLRTVRQMYKQYSTLKKKQSLQRQKVDTQESVELPAHKKDHDEVVEIGPTPQVYGKAISIFDMNLSPIKPIYMTFTNNIDVNNDNSKTISNESSPRKTILLKSSPADRTLVAEPISSVKRQLNFQMLNASSTRTPTSSPCKNRNGKLVEIKKCSPTINPPLESGKPSGYYGPNSPLKLDEENIHLNISLNSSTKRRLQIAYPSLQKTPSKDQADISTSFSPSPLIRRPLTKSLIELAREHTEIVKEFGVLQEEDIEEEEEGEEGENGYDEKNHEDDFGLEDELIRPKVVKDIFQEDDDNDDSQAREDTFIRKRPKRRKVIRRLRDNDPETETAGFERDVHKELVKLKRRKVAEFLGSTSQISDTEFEHDPEASSGVVSSEQKPTAKRKGRKKYNLVSNNFRRLKLPKKNRFSNGRWGRR
B3: Rtt107 (protein, UniProt P38850 1-1070)
chain: MSTSLLFEQLNFLILVAAEAELPIAHSTRKLLMDNSCNNCQIYELYNENLKDVKTDKDWFMNKFGPQTVHFVISNTINFPFYKIVYFDLLIPVVSHTWVQDSVKTKRHLRTNMYSPNPFHLLRDCQVYISKSSFNKCEYILYSDLLHLLGGTLVNYISNRTTHVIVQSPQDPIIATVSKLTFGSFSSSSTNKHTEKPLREWKFVYPIWILYHFKMAKPLKGELATLCELDMQDTSEEQLFAKWEEVIGDKQTSSSQLTLHPNKTLFKNHHFAISPDLNFFTPLYWFLKGFIEDLDGKVTPLSFSDDLKSVYQAFPDIDCYIGHSANSPILEKTKSIKPEIHVGNVSWLFYMFALQKFTPVSQCKLIHQPFHAKLFTSKELTVAYTNYFGSQRFYIQRLVEILGGLSTPELTRKNTHLITKSTIGKKFKVAKKWSLDPQNAIIVTNHMWLEQCYMNNSKLNPKDSRFQNFKLDDNMGWNIGQIGMDHSSLPTPKNLSMVTYDTQSISEKPPPTNDQMDQINDNTNVLSKKDGTPISSFENSIDEKIDKLQKISGEVAVTHSGDLERSFVSRPSRASFPVVDSKKSNLQKKDSNSDISMETEVFCEGHEKREEKEFTKPITEYDAPKKQEIREQSRKKNDIDYKKEEEETELQVQLGQRTKREIKTSKKNEKEKETNECHIEVDQMTNEKQGEESTGKLISTEDVTSKKDTDKFSHLFEGLSDNDDHINDEKPAVNSKYTTPKTSQNITSGVDTPTTAQTQVFMPSSGNSRLAKTQAAKRLHTDIESLNEFQKNFKRKRIDSEEISLSQDVERSNNNKELATKAEKILARFNELPNYDLKAVCTGCFHDGFNEVDIEILNQLGIKIFDNIKETDKLNCIFAPKILRTEKFLKSLSFEPLKFALKPEFIIDLLKQIHSKKDKLSQININLFDYEINGINESIISKTKLPTKVFERANIRCINLVNDIPGGVDTIGSVLKAHGIEKINVLRSKKCTFEDIIPNDVSKQENGGIFKYVLIVTKASQVKKFTKLINDRDKNETILIVEWNWCVESIFHLNVDFTSKKNVLYQKKNN
B4: Top3 (protein, UniProt P13099 1-656)
chain: MKVLCVAEKNSIAKAVSQILGGGRSTSRDSGYMYVKNYDFMFSGFPFARNGANCEVTMTSVAGHLTGIDFSHDSHGWGKCAIQELFDAPLNEIMNNNQKKIASNIKREARNADYLMIWTDCDREGEYIGWEIWQEAKRGNRLIQNDQVYRAVFSHLERQHILNAARNPSRLDMKSVHAVGTRIEIDLRAGVTFTRLLTETLRNKLRNQATMTKDGAKHRGGNKNDSQVVSYGTCQFPTLGFVVDRFERIRNFVPEEFWYIQLVVENKDNGGTTTFQWDRGHLFDRLSVLTFYETCIETAGNVAQVVDLKSKPTTKYRPLPLTTVELQKNCARYLRLNAKQSLDAAEKLYQKGFISYPRTETDTFPHAMDLKSLVEKQAQLDQLAAGGRTAWASYAASLLQPENTSNNNKFKFPRSGSHDDKAHPPIHPIVSLGPEANVSPVERRVYEYVARHFLACCSEDAKGQSMTLVLDWAVERFSASGLVVLERNFLDVYPWARWETTKQLPRLEMNALVDIAKAEMKAGTTAPPKPMTESELILLMDTNGIGTDATIAEHIDKIQVRNYVRSEKVGKETYLQPTTLGVSLVHGFEAIGLEDSFAKPFQRREMEQDLKKICEGHASKTDVVKDIVEKYRKYWHKTNACKNTLLQVYDRVKASM
B5: Rmi1 (protein, UniProt Q02685 1-241)
chain: MSFSSILSQDITDDITPPAYSATLGSREQIVFRAYQNEPWLAGTASNLILDKKLVIVDRELLFQVLMVENITKSKLTQIDDIKTKLDPKKQKVDRLRSGAQGNGAKKYEVITQVDMEDDGNVADNNCAKENNSNNNSSAAKNKAVFKLTLQSKSGDVFFAINSTPISWSSCMLGSKIVILPGTVFNRGVFILKDSQVIFLGGINRVWNENRDQKFCDYLESKLQRDKQLVNGGSKKRKAND

These molecules were tested against T1, Dpb11 (tagged bait, overexpressed from the ADH1 promoter) (S. cerevisiae) (assay: affinity purification with mass spectrometry).

binding, binds:
Slx4 (from UniProt Q12098 1-748)
B1
B2
B3
B4
B5

The molecules below were run against T2, Dpb11-K55A (bait of the affinity purification with MS) (S. cerevisiae) (assay: affinity purification with mass spectrometry).

binding, binds:
B2
